Reference: PubChem BioAssay AID2685 (National Center for Advancing Translational Sciences (NCATS), 2010)
The other results are listed elsewhere or left out. Shown are side measurements of this screen, not its main read-out; they come without a call. The list favours compounds with an active or inconclusive main result. Potencies come from curve fits of mixed quality, noted in brackets.

Experiment: qHTS Assay for Lipid Storage Modulators in Drosophila S3 Cells;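 as to cell number change: cells counted by Cell Tracker Red CMTPX staining in the red channel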
Conditions: BODIPY lipid droplet fluorescence, 18-24 h; for cell number change: measured here: cell count max response, cells fed with added oleic acid
Summary of the method: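 Laser-scanning cytometry quantifies lipid droplet accumulation (500–530 nm total intensity; droplet/cell object ratio) in oleic acid-fed (400 uM added) Drosophila S3 cells treated with a concentration series. 20 uM Triacsin C defined 100% inhibition.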

[1] = measured here: lipid fluorescence (Fed channel) AC50, cells fed with added oleic acid
[2] = measured here: cell number channel AC50, cells fed with added oleic acid

| SMILES | cell number change [%] | AC50 [1] | AC50 [2] |
| --- | --- | --- | --- |
| Cc1cc([N+](=O)[O-])nn1CCCC(=O)Nc1sc2c(c1C(N)=O)CCC(C)C2 (stereo not drawn) | -18.2 |  |  |
| Cc1ccc2nc(SCCC#N)nc(C)c2c1 | 12.2 |  |  |
| CC(C)Cn1c(N)c(C(=O)COC(=O)c2cc(-c3ccccc3)nc3ccccc23)c(=O)n(C)c1=O | 15.6 | 1.84 µM [rising, partial curve] |  |
| O=C(COc1ncnc2sccc12)Nc1ccc2c(c1)OCCO2 | 29.6 | 7.31 µM [rising, partial curve] |  |
| N#CCC(=O)Nc1ccc(C(=O)OCC(=O)NC(=O)Cc2ccccc2)cc1 | 9 |  |  |
| C/C(CC(=O)Nc1cccc(Cl)c1)=N\NC(=O)Cc1ccc(Cl)cc1 | -8.97 | 1.84 µM [rising, partial curve] |  |
| [O-][N+]1=C2CCC/C(=N\O)C2=NC12CCCCC2 | 14.3 |  |  |
| O=C1C=C(c2ccccc2)CC(c2cccs2)C1n1cnc([N+](=O)[O-])c1 (stereo not drawn) | -7.67 | 1.3 µM [falling, full curve] | 0.651 µM [falling, single point] |
| CCOC(=O)c1ccc2c(c1)N(Cc1ccccc1C)C(=O)c1ccccc1S2=O (stereo not drawn) | -29.7 |  |  |
| COc1ccc(NC(=O)CSc2n[nH]c(=O)n2Cc2ccccc2)cc1Cl | 2.94 | 6.51 µM [rising, partial curve] |  |
| CN(C)CCCN1C(=O)C(=O)/C(=C(/O)c2ccncc2)C1c1cccc(Br)c1 (stereo not drawn) | 28.8 | 3.66 µM [falling, full curve] | 4.11 µM [falling, partial curve] |
| CC(=O)c1cc(F)c(N2CCN(C(=O)Cc3ccccc3)CC2)cc1C |  |  | 3.66 µM [rising, partial curve] |
| CSCC(=O)N1CCCC(CNC(=O)c2ccccc2Cl)C1 (stereo not drawn) | 9.43 |  |  |
| COc1ccccc1NS(=O)(=O)c1cc(NC(=O)/C=C/c2cccs2)ccc1N1CCOCC1 | 36.4 | 2.06 µM [rising, partial curve, poor fit] | 4.61 µM [rising, single point] |
| COc1ccc(C2C(C(=O)c3ccc(C)o3)=C(O)C(=O)N2Cc2ccco2)cc1OC (stereo not drawn) | -11.6 | 3.26 µM [falling, single point] |  |
| CC(C)C[C@H](N)c1nnc(SCc2ccc(Cl)cc2)o1 | 22.6 |  | 1.84 µM [rising, partial curve, poor fit] |
| O=C(Nc1ccc(S(=O)(=O)N2CCOCC2)cc1)c1c(F)cccc1F | -3.33 | 0.164 µM [rising, full curve] |  |
| COc1ccc(CCC(=O)N2CCCC(Nc3ccccc3)C2)cc1OC (stereo not drawn) | 33 | 1.03 µM [rising, full curve] |  |
| Cn1c(Cl)cnc1C(O)c1ccccc1 (stereo not drawn) | -35.6 | 2.06 µM [falling, full curve] | 0.146 µM [falling, full curve] |

| SMILES | cell number change [%] | AC50 [1] | AC50 [2] |
| --- | --- | --- | --- |
| CC1CN(S(=O)(=O)c2cccc(C(=O)NCC3COc4ccccc4O3)c2)CC(C)O1 (stereo not drawn) | -41.2 | 32.6 µM [falling, single point] | 13 µM [falling, partial curve] |
| O=C(NC12CC3CC(CC(C3)C1)C2)N1CCN(c2nc(-c3ccccc3)cs2)CC1 | -18.7 | 25.9 µM [falling, single point] |  |
| Cc1ccc(NC(=O)Cc2nnc(SCC(=O)NC3CCCC3)n2C)cc1C | 17.9 | 0.116 µM [falling, full curve, poor fit] | 0.461 µM [rising, partial curve, poor fit] |
| Cc1ccc(OCC(=O)NNC(=O)c2cc(C)[nH]n2)cc1 | 33.3 |  | 20.6 µM [rising, single point] |
| COc1ccccc1/C=C\C(=O)NCC(=O)N/N=C/c1ccc(O)cc1O | 4.16 | 6.51 µM [rising, single point] | 2.91 µM [rising, single point] |
| CC(C)(C)OC(=O)N1Cc2ccccc2C[C@H]1C(=O)NCC(=O)NC1CCCC1 | 22.6 | 3.26 µM [rising, single point] |  |
| CC(C)c1ccc(OCc2cccc(C(=O)N/N=C/c3cccnc3)c2)cc1 |  | 6.51 µM [rising, single point] |  |
| COc1ccc(CC(=O)N(Cc2ccccc2)c2ccc(C)cc2)cc1S(=O)(=O)N1CCOCC1 | 45.5 |  |  |
| O=C(COC(=O)C1CC(O)CN1S(=O)(=O)c1ccccc1[N+](=O)[O-])c1ccc[nH]1 (stereo not drawn) | -30.6 | 2.31 µM [falling, partial curve, poor fit] | 0.231 µM [falling, full curve, poor fit] |
| O=C(NCCc1ccncc1)Nc1ccc(Cl)c(Cl)c1 | 27 |  |  |
| CC1(C)CC(=O)C2=C(C1)OC(c1ccncc1)C(C#N)=C2N (stereo not drawn) | -3.86 | 5.8 µM [rising, partial curve] |  |
| O=C(O)c1ccccc1-c1noc(-c2ccccc2F)n1 | 45.5 | 14.6 µM [rising, partial curve] | 16.4 µM [rising, partial curve, poor fit] |
| Cc1ccc2nc(NCCc3ccccc3)c3nncn3c2c1 | 9.72 | 0.58 µM [falling, single point] |  |
| Cc1ccc2nc(N(CCCN(C)C)C(=O)c3cc(-c4cccs4)nc4ccccc34)sc2c1 | -45 | 29.1 µM [falling, single point] | 14.6 µM [falling, partial curve, poor fit] |
| COC(=O)[C@@H]1C[C@H]2CC[C@H](O)C[C@H]2N1Cc1ccc(C)s1 | 30.4 | 2.31 µM [rising, partial curve] |  |
| Cn1c2ccccc2c(=O)c2c(=O)n(C3CCCCC3)c(-c3cccs3)nc21 | 24.8 |  |  |
| COc1ccc(-c2cc3c(=O)n(CC(=O)NCc4ccccc4F)ncn3n2)cc1 | 9.8 |  | 0.092 µM [rising, full curve, poor fit] |
| N=c1c2c3c(sc2ncn1Cc1ccccc1)CCCC3 | 8.86 | 4.11 µM [rising, partial curve, poor fit] |  |

7 entries from above, as comma-separated lines.
SMILES,cell number change [%],AC50 [1],AC50 [2]
Cc1ccc(NC(=O)Cc2nnc(SCC(=O)NC3CCCC3)n2C)cc1C,17.9,"0.116 µM [falling, full curve, poor fit]","0.461 µM [rising, partial curve, poor fit]"
Cc1ccc(OCC(=O)NNC(=O)c2cc(C)[nH]n2)cc1,33.3,,"20.6 µM [rising, single point]"
COc1ccccc1/C=C\C(=O)NCC(=O)N/N=C/c1ccc(O)cc1O,4.16,"6.51 µM [rising, single point]","2.91 µM [rising, single point]"
CC(C)(C)OC(=O)N1Cc2ccccc2C[C@H]1C(=O)NCC(=O)NC1CCCC1,22.6,"3.26 µM [rising, single point]",
CC(C)c1ccc(OCc2cccc(C(=O)N/N=C/c3cccnc3)c2)cc1,,"6.51 µM [rising, single point]",
COc1ccc(CC(=O)N(Cc2ccccc2)c2ccc(C)cc2)cc1S(=O)(=O)N1CCOCC1,45.5,,
O=C(COC(=O)C1CC(O)CN1S(=O)(=O)c1ccccc1[N+](=O)[O-])c1ccc[nH]1 (stereo not drawn),-30.6,"2.31 µM [falling, partial curve, poor fit]","0.231 µM [falling, full curve, poor fit]"
